Results published in US6180679 (dated 2001).

Test: general procedure: solution-phase peptide synthesis; pentafluorophenyl diphenylphosphinate/DIPEA (macrolactamisation); DCC/DMAP (este)
Settings: late stage modification step

Cryptophycin 55
step yield: 48%
